Data from PubChem BioAssay AID2551 (National Center for Advancing Translational Sciences (NCATS), 2010).
Values joined by “and” are separate entries in the source; they are usually repeats but may differ in a detail not shown here. Identical values can stand only once. About 17,000 (5.5%) of roughly 310,000 compounds were called active. Inconclusive means that the source gave no clear call. Such entries were picked first, then a sample of the others. Calls come from the whole dose curve; as a rule, active = well fitted inhibition curve with a large enough effect; inconclusive = small, poorly fitted or top-dose-only effect, or effect the other way; inactive = no such curve, though single readings can be large or run the other way. Potencies beside an inconclusive call are fits to weak or partial responses and may not hold up.

By UniProt entry, the sequences of proteins in these tests, tags left out. Where a name states a change or a piece, a line headed by the entry shows the natural chain unless it says otherwise.
UniProt P51450: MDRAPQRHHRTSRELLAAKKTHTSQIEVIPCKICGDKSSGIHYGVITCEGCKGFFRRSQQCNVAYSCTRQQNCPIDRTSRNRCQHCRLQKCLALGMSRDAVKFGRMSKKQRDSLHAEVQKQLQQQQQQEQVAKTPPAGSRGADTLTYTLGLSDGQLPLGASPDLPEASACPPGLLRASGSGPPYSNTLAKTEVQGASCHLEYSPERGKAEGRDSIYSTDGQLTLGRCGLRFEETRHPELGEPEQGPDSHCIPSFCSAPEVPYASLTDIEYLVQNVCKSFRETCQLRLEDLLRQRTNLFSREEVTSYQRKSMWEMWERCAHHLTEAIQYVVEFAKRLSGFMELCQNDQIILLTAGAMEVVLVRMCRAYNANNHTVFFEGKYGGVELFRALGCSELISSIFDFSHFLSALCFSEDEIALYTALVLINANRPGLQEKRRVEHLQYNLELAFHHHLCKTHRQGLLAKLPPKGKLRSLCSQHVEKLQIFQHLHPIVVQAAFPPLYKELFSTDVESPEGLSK

Target: Nuclear receptor ROR-gamma (Mus musculus) (UniProt P51450)
Test: qHTS for inhibitors of ROR gamma transcriptional activity; note: nearly all actives have a fitted effect of over 60% in size
Settings: Drosophila S2 Gal4-RORgamma UAS-luciferase reporter, 20 h; series mostly up to 53.6 µM
Outline: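 Using a luciferase readout, inhibitors were identified by reduced reporter activity in Drosophila cells coexpressing a copper-inducible Gal4–ROR gamma fusion and UAS-driven Photinus luciferase, incubated 20 hr after 700 uM copper sulfate.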
Potency is the fitted concentration of half-maximal effect.

SMILES	Potency
CC(=O)Nc1ccc(N(C(=O)c2ccco2)C(C(=O)NC2CCCC2)c2ccc(N(C)C)cc2)cc1 (stereo not given)	active: 10 µM
COc1ccc(C)cc1NC(=O)c1c([N+](=O)[O-])cnn1C	inconclusive: 1 µM [activator, single point]
Cc1ccc(NC(=O)c2ccc(F)c(S(=O)(=O)N3CCOCC3)c2)cc1F	inconclusive: 14.1 µM [activator, partial curve]
Cc1cc(C)n(-c2cc(C)c(C)cc2Br)n1	inconclusive: 12.6 µM [inhibitor, single point]
O=c1[nH]c(CSc2nnc(COc3ccccc3)n2-c2ccccc2)nc2ccccc12	active: 12.6 µM
Cc1cccc(NC(=S)NNC(=O)CC(C)O)c1C (stereo not given)	inconclusive: 10 µM [inhibitor, partial curve]
Cc1oc(S(=O)(=O)N2CCCCC2)cc1NC(=O)Nc1ccc(Cl)cc1	inconclusive: 35.5 µM [activator, single point]
COc1cccc(-c2cc(=O)c3cc(NC(=O)c4cccnc4)ccc3[nH]2)c1	inactive
Cc1ccccc1OCC(=O)N(Cc1cccs1)C1CCS(=O)(=O)C1 (stereo not given)	inconclusive: 17.8 µM [activator, single point]
CC(C)(C)C(=O)Nc1nc2c(s1)COc1ccccc1-2	inconclusive: 14.1 µM [inhibitor, single point]
COc1ccc(C(CCN2CCN(c3ccccc3)CC2)c2c(OC)cc(OC)c3c(-c4ccccc4)cc(=O)oc23)cc1 (stereo not given)	inactive
O=C(Nc1ccc(F)c(Cl)c1)C1CCN(c2ncnc3c2nc2n3CCCCC2)CC1	inactive
COc1cc(/C=C/c2ccc3cccc(O)c3n2)ccc1O	active: 3.16 µM
COCCn1c(=O)c(-c2ccccc2)nc2cnc(N3CCN(C)CC3)nc21	inactive
CCN1C(=S)N[C@@H](c2cccs2)C(C(=O)OC)=C1C	active: 12.6 µM and active: 3.98 µM
Cc1ccc(C(=O)c2coc3c2C(=O)C(=O)c2ccccc2-3)cc1	inconclusive: 0.562 µM [inhibitor, single point]
CN(C)c1nc(N)nc(CSc2nnnn2-c2ccccc2)n1	inconclusive: 14.1 µM [inhibitor, single point]
O=Cc1cn[nH]c1-c1ccccc1	inactive
CCn1c(CNC(=O)c2cccc(C)c2)nc2ccccc21	inconclusive: 3.16 µM [inhibitor, single point]
CCc1nnc(NC(=O)CSc2nnc(C3CCCCC3)n2-c2cccc(Cl)c2)s1	inconclusive: 35.5 µM [activator, single point]
CCCCCn1c(=N)n(CC(O)COc2ccccc2OC)c2ccccc21 (stereo not given)	inconclusive: 25.1 µM [inhibitor, single point]
c1ccc2c(c1)ncn2Cc1nnc2sc(-c3ccncc3)nn12	inconclusive: 12.6 µM [inhibitor, partial curve, poor fit]
COc1ccc(OC)c(NC(=S)N2CCN(C/C=C/c3ccccc3)CC2)c1	active: 2.82 µM

SMILES	Potency
CCCc1ccc(-c2cc(C(=O)N3CCN(c4ccccn4)CC3)c3ccccc3n2)cc1	active: 11.2 µM
COC(=O)C1=C(N)Oc2cc(C)n(CCCn3ccnc3)c(=O)c2C1c1ccc(Cl)cc1 (stereo not given)	inconclusive: 35.5 µM [activator, single point]
Cn1c(Oc2ccc(F)cc2)c(C=O)c2ccccc21	inactive
N#Cc1nc(COc2ccc(Br)cc2)oc1NCCCn1ccnc1	inconclusive: 35.5 µM [activator, single point]
COc1ccc(CCNc2nc(=S)[nH]c3cc(OC)c(OC)cc23)cc1OC	active: 10 µM
CCC(C)n1c(SCC(=O)Nc2ccccc2C(F)(F)F)nc2ccsc2c1=O (stereo not given)	inconclusive: 10 µM [activator, partial curve]
Cc1cccc(C)c1OCC(=O)N[C@@H](Cc1ccccc1)[C@@H](O)C[C@H](Cc1ccccc1)NC(=O)[C@H](C(C)C)N1CCCNC1=O	inconclusive: 12.6 µM [activator, partial curve, poor fit]
N#Cc1cccc(-c2nccc(-n3ccnc3)n2)c1	inconclusive: 12.6 µM [activator, single point]
NC(=NCCc1c[nH]c2ccccc12)NS(=O)(=O)c1ccc(F)cc1	inconclusive: 31.6 µM [activator, single point]
CC(C)CN(CC(C)C)S(=O)(=O)N1CCC(C(=O)NCc2ccco2)CC1	inactive
COc1ccc(Nc2nc(N)nc(CSC(=S)N3CCCCC3)n2)cc1	inconclusive: 35.5 µM [inhibitor, single point]
O=C(COc1ccc(/C=N/NC(=O)c2ccc(O)cc2)cc1)Nc1cccc([N+](=O)[O-])c1	inconclusive: 22.4 µM [inhibitor, single point]
Cc1cc(-n2c(SCC(=O)Nc3ccc(Br)cc3)nc3n[nH]c(C)c3c2=N)ccc1Cl	inconclusive: 25.1 µM [inhibitor, single point]
Fc1ccc(NC(=S)NC2CC3CCCC(C2)N3Cc2cccs2)cc1 (stereo not given)	active: 10 µM
COc1ccccc1NC(=O)Nc1cccc(NC(C)=O)c1	inactive
Cc1ccc(S(=O)(=O)N(C)C)cc1NC(=S)NC1CCCC(C)C1C (stereo not given)	active: 3.98 µM
Oc1ccc(Br)cc1CNc1nccs1	inactive
CN(CCc1ccccn1)C(=S)Nc1ccc(Cl)cc1Cl	inconclusive: 20 µM [inhibitor, single point]
CCn1nnc(NC(=O)c2ccc([N+](=O)[O-])o2)n1	inactive
O=C(CN1C(=O)C2C3C=CC(C3)C2C1=O)NCC1COc2ccccc2O1 (stereo not given)	inconclusive: 25.1 µM [activator, single point]
COc1ccc(CNC(=O)C(c2ccco2)N(Cc2ccccc2)C(=O)Cc2cccs2)cc1 (stereo not given)	inconclusive: 0.141 µM [inhibitor, full curve, poor fit]
COc1ccc(C(=O)CC2OC(=O)c3ccccc32)cc1OC (stereo not given)	inconclusive: 5.62 µM [activator, single point]
